The list shows a part of the results. Further columns of the screen follow, without active or inactive calls. The list favours compounds with an active or inconclusive main result. Potencies come from curve fits of mixed quality, noted in brackets.
Experiment: IkB Signaling
Details: ABC-DLBCL IkBa-CBG/CBR dual luciferase ratio (green luciferase fused to IkBa over red control in OCI-Ly3 lymphoma cells), 4 h
Outline: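 Luminescence ratio of IκBα-fused green versus native red beetle luciferase in OCI-Ly3 cells, 4 h post-doxycycline with compound; red signal alone, scaled from basal (0%) to zero light (-100%), flagged nonspecific or cytotoxic effects.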

[1] = measured here: control luc red channel unless noted

## CCOC(=O)Cn1c(=O)oc2cc(S(=O)(=O)NCc3ccccn3)ccc21
[1]
  AC50: 12.6 µM [falling, partial curve]

## N#C/C(=C\c1ccccc1)c1nc(-c2cc3cc(Br)ccc3oc2=O)cs1
[1]
  AC50: 0.158 µM [falling, full curve, poor fit]

## CCc1ccc(CNCc2c(C(=O)O)n(Cc3cccc(F)c3)c3cc(OC)ccc23)cc1
[1]
  AC50: 25.1 µM [falling, partial curve]

## Cc1cccc(NC(=O)c2c(NC(=O)C(F)(F)F)sc3c2CCCCC3)c1
[1]
  AC50: 0.631 µM [falling, full curve]

## CCOC(=O)c1cccc(Nc2c3c(nc4ccccc24)CCC3)c1
[1]
  AC50: 20 µM [falling, partial curve]

## O=C(NCCS(=O)(=O)N1CCN(c2ccccc2)CC1)C(c1ccccc1)c1ccccc1
[1]
  AC50: 0.00631 µM [falling, full curve, poor fit]

## O=C(CSc1nccn1-c1ccc(Cl)cc1)Nc1ccc2c(c1)OCO2
[1]
  AC50: 15.8 µM [falling, partial curve]

## COc1ccc(NC(=O)Cn2c(=O)oc3cc(S(=O)(=O)N4CCC(C)CC4)ccc32)c(OC)c1
[1]
  AC50: 15.8 µM [falling, single point]

## CCc1c(C)nc2cc(-c3cc(OC)cc(OC)c3)nn2c1N1CCCC1
[1]
  AC50: 25.1 µM [falling, single point]

## CCCS(=O)(=O)c1c(Nc2ccccc2C)sc(C(=O)c2ccccc2)c1N
[1]
  AC50: 25.1 µM [falling, single point]

## Cc1ccc(NS(=O)(=O)c2cc(Br)cc3c2N(C(=O)C2CC2)CC3)cc1C
[1]
  AC50: 15.8 µM [falling, partial curve]

## CC(C)NCC(O)Cn1c2c(c3ccccc31)CCc1c-2cnn1-c1ccccc1 (configuration not stated)
[1]
  AC50: 7.94 µM [falling, partial curve]

## CCOc1ccccc1CNC(=O)CCn1ccc2cc(S(=O)(=O)N3CCC(C)CC3)ccc21
[1]
  AC50: 15.8 µM [falling, single point]

## COC(=O)c1ccc(Cn2nnc3sc4c(c3c2=O)CCC(C)C4)cc1 (configuration not stated)
[1]
  AC50: 12.6 µM [falling, partial curve]

## COc1ccc(N2C(=O)CC(Sc3nnc(-c4ccccc4)o3)C2=O)cc1 (configuration not stated)
[1]
  AC50: 25.1 µM [falling, partial curve]

## O=C(c1ccc(Cn2cc(Br)cn2)cc1)N1CCN(c2ccccc2)CC1
[1]
  AC50: 15.8 µM [falling, partial curve]

## COc1ccc2c(CNCCc3cccs3)c(C(=O)O)n(Cc3ccccc3)c2c1
[1]
  AC50: 31.6 µM [falling, single point]

## CCOc1ccc(CCNC(=O)c2cc3c(=O)[nH]c4ccc(C)cc4c3s2)cc1OCC
[1]
  AC50: 31.6 µM [falling, single point]

## CCc1ccc2c(c1)NC(c1cccs1)=NC(c1ccc(F)cc1)=N2
[1]
  AC50: 20 µM [falling, single point]

## COc1ccccc1C(=O)Nc1cc2c(cc1N1CCOCC1)n(C)c(=O)n2C
[1]
  AC50: 0.316 µM [rising, full curve]

## COc1cc2[nH]c(=O)n(CCCCCC(=O)N3CCN(c4cccc(C(F)(F)F)c4)CC3)c(=O)c2cc1OC
[1]
  AC50: 10 µM [falling, partial curve]

## COc1cccc(N2CCN(C(=O)c3c(C)oc4ncnc(N5CCOCC5)c34)CC2)c1
[1]
  AC50: 31.6 µM [falling, single point]

## CCn1c(=O)n(CC)c2cc(N3CCCCC3)c(NC(=O)Nc3ccccc3Cl)cc21
[1]
  AC50: 20 µM [falling, single point]

## CCOC(=O)Cc1ccc(NC(=O)NCc2ccc3c(c2)CCN3C(=O)CC)cc1
[1]
  AC50: 0.00631 µM [falling, full curve, poor fit]

## Cc1cccc(-n2c(-c3ccccc3)cn3c4c(=O)[nH]c(=O)n(C)c4nc23)c1
[1]
  AC50: 10 µM [rising, partial curve]

## Cc1cc(C)cc(NC(=O)c2cc(S(=O)(=O)NCc3ccco3)ccc2F)c1
[1]
  AC50: 10 µM [falling, partial curve]

## Cc1cc(C)c(Cn2c3ccccc3c3cnn(CC(=O)N4CCCCCC4)c(=O)c32)c(C)c1
[1]
  AC50: 3.16 µM [falling, full curve]

## Cc1cccc(C)c1OCC(=O)Nc1nc(-c2ccc(Br)cc2)ns1
[1]
  AC50: 0.794 µM [falling, single point]

## CCOc1ccc(C(=O)Nc2c(C(=O)Nc3ccccc3F)oc3ccccc23)cc1OCC
[1]
  AC50: 1 µM [rising, full curve]

## CCOC(=O)CN1C(=O)C(O)(CC(=O)c2cc(OC)ccc2OC)c2ccccc21 (configuration not stated)
[1]
  AC50: 0.251 µM [rising, full curve, poor fit]

## O=C(OC1CCCCC1)c1ccc(NC(=O)c2ccco2)cc1
[1]
  AC50: 12.6 µM [falling, partial curve]

## CCn1c(SCC(=O)Nc2nc3ccccc3s2)nc2c(c1=O)SC(C)C2 (configuration not stated)
[1]
  AC50: 25.1 µM [falling, partial curve]

## CCc1ccc2oc(-c3ccc(NC(=O)c4ccc(OC)c(Br)c4)cc3)nc2c1
[1]
  AC50: 0.631 µM [falling, full curve]

## O=C(NCCc1csc(-c2ccc(Cl)cc2)n1)c1cccs1
[1]
  AC50: 25.1 µM [falling, single point]

## CCc1ccccc1NC(=O)Cn1c(-c2nonc2N)nc2ccccc21
[1]
  AC50: 2.51 µM [falling, partial curve, poor fit]

## COC(=O)c1c(NC(=O)CCCOc2ccc(C(C)(C)C)cc2)sc2c1CCC(C)C2 (configuration not stated)
[1]
  AC50: 31.6 µM [falling, single point]

## O=S(=O)(Nc1ccc2oc3c(c2c1)CCCC3)c1cc(Cl)ccc1Cl
[1]
  AC50: 15.8 µM [falling, partial curve]

## CCN(C(=O)Cn1nc(Cc2cccnc2)c2ccccc2c1=O)c1ccccc1F
[1]
  AC50: 0.158 µM [falling, full curve]

## COc1ccc(Cc2nnc(SCc3c(C)noc3C)n2C2CCCCC2)cc1OC
[1]
  AC50: 10 µM [falling, partial curve]

## Cc1cccc(NC(=O)C2CCN(c3nnc(-n4c(C)ccc4C)s3)CC2)c1C
[1]
  AC50: 39.8 µM [falling, single point]

## COc1ccc(C2Sc3ccccc3NC3=C2C(=O)c2ccccc23)c(OC)c1OC (configuration not stated)
[1]
  AC50: 3.98 µM [rising, partial curve, poor fit]

## Cc1cc(C)n(-c2ccc(C(=O)OCC(=O)c3ccc(Br)s3)cc2)n1
[1]
  AC50: 2 µM [falling, partial curve]

## Cc1ccc2nc(-c3cc(NC(=O)c4ccc5c(c4)OCCO5)ccc3Cl)oc2c1
[1]
  AC50: 3.16 µM [falling, full curve]

## COc1ccc(-c2onc(C)c2C)cc1S(=O)(=O)N1c2ccccc2CC1C (configuration not stated)
[1]
  AC50: 20 µM [falling, partial curve, poor fit]

## CC(=O)c1cc2c(cc1NC(=O)c1c(C)nn(-c3ccc(C)cc3)c1-n1cccc1)OCO2
[1]
  AC50: 0.158 µM [rising, full curve, poor fit]

## COc1ccc(OCCn2cc(C(=O)C3CCCCC3)c3ccccc32)cc1
[1]
  AC50: 10 µM [falling, partial curve]

## COc1cccc(N2CCN(C(=O)c3cnn(C(C)(C)C)c3C3CCN(C(=O)OC(C)(C)C)CC3)CC2)c1
[1]
  AC50: 39.8 µM [falling, single point]

## O=C(c1ccc2c(c1)CCN2S(=O)(=O)c1ccccc1)N1CCN(c2ccc(F)cc2)CC1
[1]
  AC50: 20 µM [falling, partial curve]

## CC(C)(C)c1ccc(OCc2nc(-c3ccccn3)no2)c(Br)c1
[1]
  AC50: 12.6 µM [falling, partial curve]

## O=C(c1ccc2c3c(cccc13)CC2)N1CCN(c2ncccn2)CC1
[1]
  AC50: 10 µM [falling, partial curve]

## COc1ccc2c(c1)CCc1c(C(=O)Nc3c(C)nn(Cc4ccccc4Cl)c3C)noc1-2
[1]
  AC50: 3.98 µM [falling, full curve]

## Cn1c(=O)c2c(nc(NCCc3ccccc3)n2Cc2cccc(Br)c2)n(C)c1=O
[1]
  AC50: 7.94 µM [falling, partial curve]

## CCCCN(CC)CCCNC(=O)c1cn(CC(C)C)c(=O)c2c1c1ccccc1n2C
[1]
  AC50: 25.1 µM [falling, partial curve]

## Cc1ccc(CCNC(=O)c2nnc(Cc3cccc(F)c3)o2)cc1
[1]
  AC50: 39.8 µM [falling, single point]

## N#Cc1c(-c2ccccc2)no[n+]1[O-]
Measured here: IkB-luc green channel
  AC50: 15.8 µM [rising, full curve]
Measured here: control luc red channel
  AC50: 15.8 µM [falling, partial curve]

## Cc1[nH]c2ccc(F)cc2c1CCNC(=O)c1cc2cc(Cl)ccc2oc1=O
[1]
  AC50: 12.6 µM [falling, partial curve, poor fit]

## COc1ccc(S(=O)(=O)NCC(c2cccs2)S(=O)(=O)c2ccc(C)cc2)cc1F (configuration not stated)
[1]
  AC50: 39.8 µM [falling, single point]

## Cc1cc(-c2ccc(N=Nc3ccc4c(S(=O)(=O)O)cc(S(=O)(=O)O)c(N)c4c3O)c(C)c2)ccc1N=Nc1ccc2c(S(=O)(=O)O)cc(S(=O)(=O)O)c(N)c2c1O
[1]
  AC50: 39.8 µM [falling, single point]

## COc1ccc(Cl)cc1NS(=O)(=O)c1c(C)nc2scc(C)n2c1=O
[1]
  AC50: 39.8 µM [falling, single point]

## CCn1c(CCC(=O)Nc2nc3c(s2)CCCC3)nc2cc(S(=O)(=O)N(C)C)ccc21
[1]
  AC50: 3.16 µM [falling, full curve]

## Cc1ccc(CNC(=O)c2c[nH]c3ccc(S(=O)(=O)Nc4ccc(C(C)C)cc4)cc3c2=O)cc1
[1]
  AC50: 3.16 µM [falling, full curve]

From PubChem BioAssay AID445 (National Center for Advancing Translational Sciences (NCATS), 2006)
